Counter-ions that a name gives are not always drawn. The list shows a part of the results. This data set is noisy: repeats of one test often differ as much as different tests do.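 Cells: ReNCell VM human fetal ventral-midbrain neural progenitors, differentiated mitogen-free. Blinded raters compared doublecortin-stained (early neurons) or tyrosine hydroxylase-stained (dopaminergic neurons) images with untreated wells, where 0 means no change. After repeats and both raters were averaged, compounds scoring 2 or above became hits for retesting.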
Legend:
ReNCell VM [1] = assay: neuronal differentiation score (DCX+ cell fraction vs untreated, manual image score) (score (-3 to 3)); higher = more neuronal differentiation; details: 2 uM, 2 weeks
ReNCell VM [2] = assay: dopaminergic neuron differentiation score (TH+ cell fraction vs untreated, manual image score) (score (0 to 3)); higher = more TH+ dopaminergic neuron differentiation; details: 2 uM, 4 weeks, BDNF 10 ng/ml + GDNF 10 ng/ml

## CC(=O)[C@]1(O)Cc2c(O)c3c(c(O)c2[C@@H](O[C@H]2C[C@H](N)[C@H](O)[C@H](C)O2)C1)C(=O)c1ccccc1C3=O [Idarubicin]
ReNCell VM [1]; library: LOPAC
  neuronal differentiation score: inactive: 0
ReNCell VM [2]; library: LOPAC
  dopaminergic neuron differentiation score: inactive: 0

## CC(=O)O[C@H]1C[C@@H](OC(C)=O)C(C)(C)C2C[C@@H](O)[C@]3(C)C(CC[C@@]4(C)[C@H](c5ccoc5)OC(=O)[C@H]5O[C@]543)[C@]21C (stereo not given in full)
ReNCell VM [1]; library: Spectrum
  neuronal differentiation score: inactive: 0
ReNCell VM [2]; library: Spectrum
  dopaminergic neuron differentiation score: inactive: 0

## CCCC(C(=O)OCCN(CC)CC)(c1ccccc1)c1ccccc1 [SKF-525A hydrochloride]
ReNCell VM [1]; library: LOPAC
  neuronal differentiation score: inactive: 0
ReNCell VM [2]; library: LOPAC
  dopaminergic neuron differentiation score: inactive: 0

## C=CC(C1=CC(=O)C(OC)=CC1=O)c1ccc(OC)cc1 (stereo not given)
ReNCell VM [1]; library: Spectrum
  neuronal differentiation score: inactive: 0
ReNCell VM [2]; library: Spectrum
  dopaminergic neuron differentiation score: inactive: 0

## O[C@H]1[C@H]2c3cc4c(cc3CN3CCC(=C[C@@H]1O)[C@H]23)OCO4 [Lycorine HCl]
ReNCell VM [1]; library: Phytochemical
  neuronal differentiation score: inactive: 0
ReNCell VM [2]; library: Phytochemical
  dopaminergic neuron differentiation score: inactive: 0

## Cc1onc(-c2ccccc2)c1C(=O)N[C@@H]1C(=O)N2[C@@H]1SC(C)(C)[C@@H]2C(=O)O [Oxacillin sodium]
ReNCell VM [1]; library: Prestwick
  neuronal differentiation score: inactive: 0
ReNCell VM [2]; library: Prestwick
  dopaminergic neuron differentiation score: inactive: 0

## CN(C)CCCSc1ccccc1NC(=O)/C=C/c1ccccc1 [Cinanserin hydrochloride]
ReNCell VM [1]; library: Tocriscreen
  neuronal differentiation score: inactive: 0
ReNCell VM [2]; library: Tocriscreen
  dopaminergic neuron differentiation score: inactive: 1

## C[N+](C)(C)CCCCCC[N+](C)(C)C
ReNCell VM [1]; library: Spectrum
  neuronal differentiation score: inactive: 0
ReNCell VM [2]; library: Spectrum
  dopaminergic neuron differentiation score: inactive: 0

## CC(=O)N[C@@H](CCC(N)=O)C(=O)O
ReNCell VM [1]; library: Spectrum
  neuronal differentiation score: inactive: 0
ReNCell VM [2]; library: Spectrum
  dopaminergic neuron differentiation score: inactive: 0

## CN1CCOC(c2ccccc2)c2ccccc2C1 (stereo not given) [Nefopam hydrochloride]
ReNCell VM [1]; library: Prestwick
  neuronal differentiation score: inactive: 0
ReNCell VM [2]; library: Prestwick
  dopaminergic neuron differentiation score: inactive: 0

## O=C(OCCN1CCOCC1)C1(c2ccccc2)CCCCC1 [PRE-084 hydrochloride]
ReNCell VM [1]; library: Tocriscreen
  neuronal differentiation score: inactive: 0
ReNCell VM [2]; library: Tocriscreen
  dopaminergic neuron differentiation score: inactive: 0

## Nc1ncnc2c1ncn2[C@@H]1O[C@H](CO)[C@@H](O)[C@H]1O
ReNCell VM [1]; library: Spectrum
  neuronal differentiation score: inactive: 0
ReNCell VM [2]; library: Spectrum
  dopaminergic neuron differentiation score: inactive: 0

## Cc1c(CC(C)(C)C(=O)O)n(Cc2ccc(Cl)cc2)c2ccc(F)cc12
ReNCell VM [1]; library: Tocriscreen
  neuronal differentiation score: inactive: 0
ReNCell VM [2]; library: Tocriscreen
  dopaminergic neuron differentiation score: inactive: 0

## c1nc(CC2CCNCC2)c[nH]1 [Immepip dihydrobromide]
ReNCell VM [1]; library: Tocriscreen
  neuronal differentiation score: inactive: 0
ReNCell VM [2]; library: Tocriscreen
  dopaminergic neuron differentiation score: inactive: 0

## Nc1nc(NC2CC2)c2ncn([C@H]3C=C[C@@H](CO)C3)c2n1 [Abacavir Sulfate]
ReNCell VM [1]; library: Prestwick
  neuronal differentiation score: inactive: 0
ReNCell VM [2]; library: Prestwick
  dopaminergic neuron differentiation score: inactive: 0

## CCC(Cc1c(I)cc(I)c(N)c1I)C(=O)O (stereo not given)
ReNCell VM [1]; library: Spectrum
  neuronal differentiation score: inactive: 0
ReNCell VM [2]; library: Spectrum
  dopaminergic neuron differentiation score: inactive: 0

## CC[C@@]1(O)C(=O)OCc2c1cc1n(c2=O)Cc2cc3cc(O)ccc3nc2-1 [10-hydroxycamptothecin]
ReNCell VM [1]; library: Natural
  neuronal differentiation score: inactive: 0
ReNCell VM [2]; library: Natural
  dopaminergic neuron differentiation score: inactive: 0

## CC(=O)O[C@]1(C(C)=O)CC[C@H]2[C@@H]3C=C(Cl)C4=CC(=O)CC[C@]4(C)[C@H]3CC[C@@]21C
ReNCell VM [1]; library: Spectrum
  neuronal differentiation score: inactive: 0
ReNCell VM [2]; library: Spectrum
  dopaminergic neuron differentiation score: inactive: 0

## C[C@]12CCC(=O)C=C1C=C[C@@H]1[C@@H]2CC[C@@]2(C)[C@H]1CC[C@@]21CCC(=O)O1
ReNCell VM [1]; library: Spectrum
  neuronal differentiation score: active: 3
ReNCell VM [2]; library: Spectrum
  dopaminergic neuron differentiation score: inactive: 0

## CC=CC1=C(C(=O)O)N2C(=O)[C@@H](NC(=O)[C@H](N)c3ccc(O)cc3)[C@H]2SC1
ReNCell VM [1]; library: Spectrum
  neuronal differentiation score: inactive: 0
ReNCell VM [2]; library: Spectrum
  dopaminergic neuron differentiation score: inactive: 0

## NC[C@H](O)c1ccc(O)c(O)c1
ReNCell VM [1]; library: Spectrum
  neuronal differentiation score: inactive: 1
ReNCell VM [2]; library: Spectrum
  dopaminergic neuron differentiation score: inactive: 0

## CN(c1nccc(=O)[nH]1)C1CCN(c2nc3ccccc3n2Cc2ccc(F)cc2)CC1 [Mizolastine]
ReNCell VM [1]; library: Prestwick
  neuronal differentiation score: inactive: 0
ReNCell VM [2]; library: Prestwick
  dopaminergic neuron differentiation score: inactive: 0

## CC(C)C[C@@H]1NC(=O)[C@H](CCCN)NC(=O)[C@H](C(C)C)NC(=O)[C@H](Cc2ccc(O)cc2)N[C@@H](CCC(=O)O)C(=O)N[C@@H](CC(N)=O)C(=O)[C@@H](Cc2ccccc2)NC(=O)[C@H](Cc2ccccc2)NC(=O)[C@@H]2CCCN2C(=O)[C@@H](Cc2ccccc2)NC1=O
ReNCell VM [1]; library: Spectrum
  neuronal differentiation score: inactive: 0
ReNCell VM [2]; library: Spectrum
  dopaminergic neuron differentiation score: inactive: 0

## O=C1OC(CN2CCOCC2)CN1/N=C/c1ccc([N+](=O)[O-])o1 (stereo not given) [Furaltadone hydrochloride]
ReNCell VM [1]; library: Prestwick
  neuronal differentiation score: inactive: 0
ReNCell VM [2]; library: Prestwick
  dopaminergic neuron differentiation score: inactive: 0

## Cc1cc2c(cc1S(N)(=O)=O)S(=O)(=O)CCC2 [Meticrane]
ReNCell VM [1]; library: Prestwick
  neuronal differentiation score: inactive: 0
ReNCell VM [2]; library: Prestwick
  dopaminergic neuron differentiation score: inactive: 0

## O=C(N[C@@H](Cc1ccccc1)C(=O)CCl)OCc1ccccc1 [Z-L-Phe chloromethyl ketone]
ReNCell VM [1]; library: LOPAC
  neuronal differentiation score: inactive: 0
ReNCell VM [2]; library: LOPAC
  dopaminergic neuron differentiation score: inactive: 0

## CN(C)c1cnccn1
ReNCell VM [1]; library: Spectrum
  neuronal differentiation score: inactive: 0
ReNCell VM [2]; library: Spectrum
  dopaminergic neuron differentiation score: inactive: 0

## Nc1nc(O)c2ncn(CCC(CO)CO)c2n1 [Penciclovir]
ReNCell VM [1]; library: Prestwick
  neuronal differentiation score: inactive: 0
ReNCell VM [2]; library: Prestwick
  dopaminergic neuron differentiation score: inactive: 0

## Cc1cc(=O)n(-c2ccccc2)n1C [Antipyrine]
ReNCell VM [1]; library: Prestwick
  neuronal differentiation score: inactive: 0
ReNCell VM [2]; library: Prestwick
  dopaminergic neuron differentiation score: inactive: 0

## Nc1nc2c(ncn2COC(CO)CO)c(=O)[nH]1
ReNCell VM [1]; library: Spectrum
  neuronal differentiation score: inactive: 0
ReNCell VM [2]; library: Spectrum
  dopaminergic neuron differentiation score: inactive: 0
